# Source: doi:10.1101/2025.09.03.674114
# The chains behind the UniProt entries cited, without tags or fusion partners.
# UniProt Q5S007: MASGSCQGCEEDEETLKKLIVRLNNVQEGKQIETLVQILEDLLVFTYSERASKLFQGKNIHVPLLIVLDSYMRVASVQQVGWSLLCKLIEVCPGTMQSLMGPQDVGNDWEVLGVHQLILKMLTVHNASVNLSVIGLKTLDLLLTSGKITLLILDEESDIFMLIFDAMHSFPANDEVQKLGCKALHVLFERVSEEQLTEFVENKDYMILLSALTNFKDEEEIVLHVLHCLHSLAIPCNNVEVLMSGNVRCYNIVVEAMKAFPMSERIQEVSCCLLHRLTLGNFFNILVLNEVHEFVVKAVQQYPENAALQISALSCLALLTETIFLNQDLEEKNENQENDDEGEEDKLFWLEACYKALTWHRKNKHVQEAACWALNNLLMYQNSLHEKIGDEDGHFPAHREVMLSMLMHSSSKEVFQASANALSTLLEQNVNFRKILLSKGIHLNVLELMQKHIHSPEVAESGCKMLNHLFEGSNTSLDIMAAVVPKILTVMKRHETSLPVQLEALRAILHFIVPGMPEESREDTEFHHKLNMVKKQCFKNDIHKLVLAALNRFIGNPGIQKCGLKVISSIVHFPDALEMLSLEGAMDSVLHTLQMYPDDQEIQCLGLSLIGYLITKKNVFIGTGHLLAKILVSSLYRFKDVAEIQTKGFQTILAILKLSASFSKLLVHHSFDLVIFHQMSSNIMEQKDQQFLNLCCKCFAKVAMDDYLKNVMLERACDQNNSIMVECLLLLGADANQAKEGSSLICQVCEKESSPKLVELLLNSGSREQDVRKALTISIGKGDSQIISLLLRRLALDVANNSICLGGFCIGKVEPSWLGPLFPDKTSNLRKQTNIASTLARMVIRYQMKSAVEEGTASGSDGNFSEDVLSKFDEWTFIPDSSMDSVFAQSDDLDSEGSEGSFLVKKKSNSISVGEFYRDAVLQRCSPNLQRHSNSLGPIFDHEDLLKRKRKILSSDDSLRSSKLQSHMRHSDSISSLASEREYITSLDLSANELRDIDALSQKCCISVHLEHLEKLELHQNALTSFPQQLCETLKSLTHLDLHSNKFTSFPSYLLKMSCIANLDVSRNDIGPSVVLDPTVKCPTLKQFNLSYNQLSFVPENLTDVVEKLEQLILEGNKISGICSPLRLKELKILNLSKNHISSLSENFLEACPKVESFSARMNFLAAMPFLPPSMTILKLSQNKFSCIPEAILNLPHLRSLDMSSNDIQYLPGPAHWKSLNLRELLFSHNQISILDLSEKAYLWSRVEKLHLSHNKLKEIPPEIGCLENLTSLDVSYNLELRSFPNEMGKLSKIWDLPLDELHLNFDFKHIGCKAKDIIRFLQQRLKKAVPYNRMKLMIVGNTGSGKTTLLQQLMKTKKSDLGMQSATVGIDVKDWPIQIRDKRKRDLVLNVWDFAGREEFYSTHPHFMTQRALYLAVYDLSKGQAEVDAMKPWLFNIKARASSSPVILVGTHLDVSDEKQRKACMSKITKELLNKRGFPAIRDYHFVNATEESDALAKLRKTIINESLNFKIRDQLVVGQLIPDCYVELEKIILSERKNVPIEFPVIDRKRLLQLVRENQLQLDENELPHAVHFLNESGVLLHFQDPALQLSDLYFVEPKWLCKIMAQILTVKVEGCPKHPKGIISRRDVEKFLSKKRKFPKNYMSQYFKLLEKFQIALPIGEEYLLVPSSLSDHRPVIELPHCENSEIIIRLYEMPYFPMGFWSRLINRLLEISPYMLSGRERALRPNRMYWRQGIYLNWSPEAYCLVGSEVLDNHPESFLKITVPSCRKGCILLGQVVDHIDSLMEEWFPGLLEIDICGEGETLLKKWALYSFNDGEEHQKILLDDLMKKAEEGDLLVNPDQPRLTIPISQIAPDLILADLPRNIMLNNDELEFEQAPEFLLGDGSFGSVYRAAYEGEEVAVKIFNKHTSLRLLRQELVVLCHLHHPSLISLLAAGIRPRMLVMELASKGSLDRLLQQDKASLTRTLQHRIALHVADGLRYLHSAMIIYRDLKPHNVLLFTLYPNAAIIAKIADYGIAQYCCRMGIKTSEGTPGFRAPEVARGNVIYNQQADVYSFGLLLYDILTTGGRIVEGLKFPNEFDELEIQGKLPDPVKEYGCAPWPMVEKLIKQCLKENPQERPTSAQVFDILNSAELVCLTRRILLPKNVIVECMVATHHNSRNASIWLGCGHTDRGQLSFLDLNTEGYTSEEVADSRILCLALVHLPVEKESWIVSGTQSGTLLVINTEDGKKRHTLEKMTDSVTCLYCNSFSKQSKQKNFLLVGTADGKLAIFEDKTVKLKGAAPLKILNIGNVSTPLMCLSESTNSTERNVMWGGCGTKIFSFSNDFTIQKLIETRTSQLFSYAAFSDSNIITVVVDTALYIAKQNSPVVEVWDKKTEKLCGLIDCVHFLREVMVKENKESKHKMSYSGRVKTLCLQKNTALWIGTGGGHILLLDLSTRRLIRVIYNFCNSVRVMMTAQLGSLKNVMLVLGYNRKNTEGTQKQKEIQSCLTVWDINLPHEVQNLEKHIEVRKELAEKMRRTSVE
# UniProt P61006: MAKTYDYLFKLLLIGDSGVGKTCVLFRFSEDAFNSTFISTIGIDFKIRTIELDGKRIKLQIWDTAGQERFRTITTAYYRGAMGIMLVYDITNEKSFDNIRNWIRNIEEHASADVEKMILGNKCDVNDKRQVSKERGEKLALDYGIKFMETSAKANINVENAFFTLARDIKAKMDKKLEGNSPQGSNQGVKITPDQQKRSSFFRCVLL
# UniProt Q38SD2: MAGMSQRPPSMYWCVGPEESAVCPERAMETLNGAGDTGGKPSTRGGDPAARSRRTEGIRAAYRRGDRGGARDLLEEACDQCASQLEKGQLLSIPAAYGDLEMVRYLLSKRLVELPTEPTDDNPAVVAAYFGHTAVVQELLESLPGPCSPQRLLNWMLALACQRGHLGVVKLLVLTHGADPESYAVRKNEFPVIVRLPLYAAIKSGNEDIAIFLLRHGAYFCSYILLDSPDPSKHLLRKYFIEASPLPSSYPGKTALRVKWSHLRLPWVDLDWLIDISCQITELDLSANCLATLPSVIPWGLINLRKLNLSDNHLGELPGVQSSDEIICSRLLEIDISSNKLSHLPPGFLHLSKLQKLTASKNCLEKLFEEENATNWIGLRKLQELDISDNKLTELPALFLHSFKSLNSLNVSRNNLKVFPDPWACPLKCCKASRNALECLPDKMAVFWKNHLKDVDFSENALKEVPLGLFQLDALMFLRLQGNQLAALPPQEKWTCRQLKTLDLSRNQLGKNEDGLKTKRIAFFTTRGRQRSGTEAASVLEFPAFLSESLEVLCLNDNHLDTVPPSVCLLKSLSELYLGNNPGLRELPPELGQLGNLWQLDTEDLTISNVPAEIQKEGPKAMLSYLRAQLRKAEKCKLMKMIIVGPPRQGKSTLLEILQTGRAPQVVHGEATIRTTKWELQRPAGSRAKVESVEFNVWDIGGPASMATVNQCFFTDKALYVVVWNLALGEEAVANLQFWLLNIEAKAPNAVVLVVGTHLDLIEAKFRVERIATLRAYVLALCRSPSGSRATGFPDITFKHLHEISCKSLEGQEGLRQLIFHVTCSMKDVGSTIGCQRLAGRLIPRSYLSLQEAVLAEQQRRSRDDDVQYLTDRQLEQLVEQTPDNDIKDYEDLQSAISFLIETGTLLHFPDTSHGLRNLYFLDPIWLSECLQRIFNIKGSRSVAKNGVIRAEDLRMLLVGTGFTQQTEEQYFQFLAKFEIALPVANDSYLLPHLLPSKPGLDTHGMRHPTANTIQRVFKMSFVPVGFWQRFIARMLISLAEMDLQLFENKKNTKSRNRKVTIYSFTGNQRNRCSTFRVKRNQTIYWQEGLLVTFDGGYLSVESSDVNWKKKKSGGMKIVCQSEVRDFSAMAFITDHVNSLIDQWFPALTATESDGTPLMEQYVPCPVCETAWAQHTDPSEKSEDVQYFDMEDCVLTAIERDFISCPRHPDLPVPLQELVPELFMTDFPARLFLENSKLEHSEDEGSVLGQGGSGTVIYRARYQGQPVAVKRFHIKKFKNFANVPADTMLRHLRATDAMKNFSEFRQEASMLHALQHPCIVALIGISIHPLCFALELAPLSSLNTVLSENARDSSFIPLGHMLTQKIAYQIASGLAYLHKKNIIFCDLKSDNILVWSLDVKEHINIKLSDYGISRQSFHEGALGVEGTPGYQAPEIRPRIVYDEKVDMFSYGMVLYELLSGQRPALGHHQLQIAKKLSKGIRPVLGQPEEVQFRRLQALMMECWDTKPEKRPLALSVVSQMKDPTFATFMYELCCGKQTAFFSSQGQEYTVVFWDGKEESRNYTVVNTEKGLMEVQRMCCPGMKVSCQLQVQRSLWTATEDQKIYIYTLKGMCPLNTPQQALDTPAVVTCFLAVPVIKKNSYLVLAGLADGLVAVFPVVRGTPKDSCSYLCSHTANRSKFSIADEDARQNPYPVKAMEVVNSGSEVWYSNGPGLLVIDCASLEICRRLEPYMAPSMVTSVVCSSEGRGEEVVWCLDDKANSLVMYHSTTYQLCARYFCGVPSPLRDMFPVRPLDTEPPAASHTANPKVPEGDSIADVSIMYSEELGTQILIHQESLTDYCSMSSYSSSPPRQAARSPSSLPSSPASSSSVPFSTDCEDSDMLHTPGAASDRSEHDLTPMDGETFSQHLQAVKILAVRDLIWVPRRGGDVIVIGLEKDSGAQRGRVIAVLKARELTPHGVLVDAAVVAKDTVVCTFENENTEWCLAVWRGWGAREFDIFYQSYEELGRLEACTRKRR
# UniProt P68363: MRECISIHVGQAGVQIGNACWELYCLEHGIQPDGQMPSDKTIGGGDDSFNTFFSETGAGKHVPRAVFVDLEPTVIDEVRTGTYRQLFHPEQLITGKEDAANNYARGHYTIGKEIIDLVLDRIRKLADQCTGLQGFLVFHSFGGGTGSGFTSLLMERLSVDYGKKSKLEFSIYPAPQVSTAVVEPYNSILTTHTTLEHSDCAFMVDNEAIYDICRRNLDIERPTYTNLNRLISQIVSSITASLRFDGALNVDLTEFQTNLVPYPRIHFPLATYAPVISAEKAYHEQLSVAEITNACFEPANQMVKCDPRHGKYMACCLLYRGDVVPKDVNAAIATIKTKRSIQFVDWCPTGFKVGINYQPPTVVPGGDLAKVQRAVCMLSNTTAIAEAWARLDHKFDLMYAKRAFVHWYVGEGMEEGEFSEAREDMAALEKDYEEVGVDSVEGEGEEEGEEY
# UniProt P62993: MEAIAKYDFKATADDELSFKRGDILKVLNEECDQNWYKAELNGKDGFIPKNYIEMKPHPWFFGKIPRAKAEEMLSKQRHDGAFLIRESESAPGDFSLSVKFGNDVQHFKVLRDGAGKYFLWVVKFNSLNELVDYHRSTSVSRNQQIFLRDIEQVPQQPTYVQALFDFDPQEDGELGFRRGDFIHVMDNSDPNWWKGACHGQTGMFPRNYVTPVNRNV
# UniProt Q13596: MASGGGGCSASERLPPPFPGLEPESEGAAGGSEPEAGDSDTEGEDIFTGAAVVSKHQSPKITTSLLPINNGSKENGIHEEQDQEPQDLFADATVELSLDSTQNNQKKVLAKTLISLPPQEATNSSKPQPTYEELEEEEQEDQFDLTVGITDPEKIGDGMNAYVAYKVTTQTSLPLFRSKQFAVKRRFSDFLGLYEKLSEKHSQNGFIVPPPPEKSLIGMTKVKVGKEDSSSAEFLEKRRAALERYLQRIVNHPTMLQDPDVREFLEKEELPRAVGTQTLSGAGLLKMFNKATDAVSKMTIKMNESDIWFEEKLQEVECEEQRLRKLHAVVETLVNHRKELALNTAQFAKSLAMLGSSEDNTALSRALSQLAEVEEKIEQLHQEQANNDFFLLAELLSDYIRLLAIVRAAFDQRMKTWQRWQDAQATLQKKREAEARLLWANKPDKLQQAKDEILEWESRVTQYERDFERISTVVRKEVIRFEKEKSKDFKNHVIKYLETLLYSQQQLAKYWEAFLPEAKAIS
# No constants are given. Whether binding was seen depends on the method and setting. In cells and extracts the contact can be indirect. Here binding means that the protein was enriched with, or labelled near, the bait; the list need not be complete.
# B1: Vps53 (protein, UniProt Q5VIR6 1-832)
# chain: MMEEEELEFVEELEAVLQLTPEVQLAIEQVFPSQDPLDRADFNAVEYINTLFPTEQSLANIDEVVNKIRLKIRRLDDNIRTVVRGQTNVGQDGRQALEEAQKAIQQLFGKIKDIKDKAEKSEQMVKEITRDIKQLDHAKRHLTTSITTLNHLHMLAGGVDSLEAMTRRRQYGEVANLLQGVMNVLEHFHKYMGIPQIRQLSERVKAAQTELGQQILADFEEAFPSQGTKRPGGPSNVLRDACLVANILDPRIKQEIIKKFIKQHLSEYLVLFQENQDVAWLDKIDRRYAWIKRQLVDYEEKYGRMFPREWCMAERIAVEFCHVTRAELAKIMRTRAKEIEVKLLLFAIQRTTNFEGFLAKRFSGCTLTDGTLKKLESPPPSTNPFLEDEPTPEMEELATEKGDLDQPKKPKAPDNPFHGIVSKCFEPHLYVYIESQDKNLGELIDRFVADFKAQGPPKPNTDEGGAVLPSCADLFVYYKKCMVQCSQLSTGEPMIALTTIFQKYLREYAWKILSGNLPKTTTSSGGLTISSLLKEKEGSEVAKFTLEELCLICNILSTAEYCLATTQQLEEKLKEKVDVSLIERINLTGEMDTFSTVISSSIQLLVQDLDAACDPALTAMSKMQWQNVEHVGDQSPYVTSVILHIKQNVPIIRDNLASTRKYFTQFCVKFANSFIPKFITHLFKCKPISMVGAEQLLLDTHSLKMVLLDLPSISSQVVRKAPASYTKIVVKGMTRAEMILKVVMAPHEPLVVFVDNYIKLLTDCNTETFQKILDMKGLKRSEQSSMLELLRQRLPAPPSGAESSGSLSLTAPTPEQESSRIRKLEKLIKKRL
# B2: Rab39A (protein, UniProt Q14964 1-217)
# chain: METIWIYQFRLIVIGDSTVGKSCLLHRFTQGRFPGLRSPACDPTVGVDFFSRLLEIEPGKRIKLQLWDTAGQERFRSITRSYYRNSVGGFLVFDITNRRSFEHVKDWLEEAKMYVQPFRIVFLLVGHKCDLASQRQVTREEAEKLSADCGMKYIETSAKDATNVEESFTILTRDIYELIKKGEICIQDGWEGVKSGFVPNTVHSSEEAVKPRKECFC
# B3: GOLGA3 (protein, UniProt Q08378 1-1498)
# chain: MDGASAEQDGLQEDRSHSGPSSLPEAPLKPPGPLVPPDQQDKVQCAEVNRASTEGESPDGPGQGGLCQNGPTPPFPDPPSSLDPTTSPVGPDASPGVAGFHDNLRKSQGTSAEGSVRKEALQSLRLSLPMQETQLCSTDSPLPLEKEEQVRLQARKWLEEQLKQYRVKRQQERSSQPATKTRLFSTLDPELMLNPENLPRASTLAMTKEYSFLRTSVPRGPKVGSLGLPAHPREKKTSKSSKIRSLADYRTEDSNAGNSGGNVPAPDSTKGSLKQNRSSAASVVSEISLSPDTDDRLENTSLAGDSVSEVDGNDSDSSSYSSASTRGTYGILSKTVGTQDTPYMVNGQEIPADTLGQFPSIKDVLQAAAAEHQDQGQEVNGEVRSRRDSICSSVSLESSAAETQEEMLQVLKEKMRLEGQLEALSLEASQALKEKAELQAQLAALSTKLQAQVECSHSSQQRQDSLSSEVDTLKQSCWDLERAMTDLQNMLEAKNASLASSNNDLQVAEEQYQRLMAKVEDMQRSMLSKDNTVHDLRQQMTALQSQLQQVQLERTTLTSKLKASQAEISSLQSVRQWYQQQLALAQEARVRLQGEMAHIQVGQMTQAGLLEHLKLENVSLSQQLTETQHRSMKEKGRIAAQLQGIEADMLDQEAAFMQIQEAKTMVEEDLQRRLEEFEGERERLQRMADSAASLEQQLEQVKLTLLQRDQQLEALQQEHLDLMKQLTLTQEALQSREQSLDALQTHYDELQARLGELQGEAASREDTICLLQNEKIILEAALQAAKSGKEELDRGARRLEEGTEETSETLEKLREELAIKSGQVEHLQQETAALKKQMQKIKEQFLQQKVMVEAYRRDATSKDQLISELKATRKRLDSELKELRQELMQVHGEKRTAEAELSRLHREVAQVRQHMADLEGHLQSAQKERDEMETHLQSLQFDKEQMVAVTEANEALKKQIEELQQEARKAITEQKQKMRRLGSDLTSAQKEMKTKHKAYENAVGILSRRLQEALAAKEAADAELGQLRAQGGSSDSSLALHERIQALEAELQAVSHSKTLLEKELQEVIALTSQELEESREKVLELEDELQESRGFRKKIKRLEESNKKLALELEHEKGKLTGLGQSNAALREHNSILETALAKREADLVQLNLQVQAVLQRKEEEDRQMKHLVQALQASLEKEKEKVNSLKEQVAAAKVEAGHNRRHFKAASLELSEVKKELQAKEHLVQKLQAEADDLQIREGKHSQEIAQFQAELAEARAQLQLLQKQLDEQLSKQPVGNQEMENLKWEVDQKEREIQSLKQQLDLTEQQGRKELEGLQQLLQNVKSELEMAQEDLSMTQKDKFMLQAKVSELKNNMKTLLQQNQQLKLDLRRGAAKTRKEPKGEASSSNPATPIKIPDCPVPASLLEELLRPPPAVSKEPLKNLNSCLQQLKQEMDSLQRQMEEHALTVHESLSSWTPLEPATASPVPPGGHAGPRGDPQRHSQSRASKEGPGE
# B4: GOLGA2 (protein, UniProt Q08379 1-1002)
# chain: MWPQPRLPPRPAMSEETRQSKLAAAKKKLREYQQRNSPGVPTGAKKKKKIKNGSNPETTTSGGCHSPEDTPKDNAATLQPSDDTVLPGGVPSPGASLTSMAASQNHDADNVPNLMDETKTFSSTESLRQLSQQLNGLVCESATCVNGEGPASSANLKDLESRYQQLAVALDSSYVTNKQLNITIEKLKQQNQEITDQLEEEKKECHQKQGALREQLQVHIQTIGILVSEKAELQTALAHTQHAARQKEGESEDLASRLQYSRRRVGELERALSAVSTQQKKADRYNKELTKERDALRLELYKNTQSNEDLKQEKSELEEKLRVLVTEKAGMQLNLEELQKKLEMTELLLQQFSSRCEAPDANQQLQQAMEERAQLEAHLGQVMESVRQLQMERDKYAENLKGESAMWRQRMQQMSEQVHTLREEKECSMSRVQELETSLAELRNQMAEPPPPEPPAGPSEVEQQLQAEAEHLRKELEGLAGQLQAQVQDNEGLSRLNREQEERLLELERAAELWGEQAEARRQILETMQNDRTTISRALSQNRELKEQLAELQSGFVKLTNENMEITSALQSEQHVKRELGKKLGELQEKLSELKETVELKSQEAQSLQQQRDQYLGHLQQYVAAYQQLTSEKEVLHNQLLLQTQLVDQLQQQEAQGKAVAEMARQELQETQERLEAATQQNQQLRAQLSLMAHPGEGDGLDREEEEDEEEEEEEAVAVPQPMPSIPEDLESREAMVAFFNSAVASAEEEQARLRGQLKEQRVRCRRLAHLLASAQKEPEAAAPAPGTGGDSVCGETHRALQGAMEKLQSRFMELMQEKADLKERVEELEHRCIQLSGETDTIGEYIALYQSQRAVLKERHREKEEYISRLAQDKEEMKVKLLELQELVLRLVGDRNEWHGRFLAAAQNPADEPTSGAPAPQELGAANQQGDLCEVSLAGSVEPAQGEAREGSPRDNPTAQQIMQLLREMQNPRERPGLGSNPCIPFFYRADENDEVKITVI
# B5: Vps52 (protein, UniProt Q8N1B4 1-723)
# chain: MAAAATMAAAARELVLRAGTSDMEEEEGPLAGGPGLQEPLQLGELDITSDEFILDEVDVHIQANLEDELVKEALKTGVDLRHYSKQVELELQQIEQKSIRDYIQESENIASLHNQITACDAVLERMEQMLGAFQSDLSSISSEIRTLQEQSGAMNIRLRNRQAVRGKLGELVDGLVVPSALVTAILEAPVTEPRFLEQLQELDAKAAAVREQEARGTAACADVRGVLDRLRVKAVTKIREFILQKIYSFRKPMTNYQIPQTALLKYRFFYQFLLGNERATAKEIRDEYVETLSKIYLSYYRSYLGRLMKVQYEEVAEKDDLMGVEDTAKKGFFSKPSLRSRNTIFTLGTRGSVISPTELEAPILVPHTAQRGEQRYPFEALFRSQHYALLDNSCREYLFICEFFVVSGPAAHDLFHAVMGRTLSMTLKHLDSYLADCYDAIAVFLCIHIVLRFRNIAAKRDVPALDRYWEQVLALLWPRFELILEMNVQSVRSTDPQRLGGLDTRPHYITRRYAEFSSALVSINQTIPNERTMQLLGQLQVEVENFVLRVAAEFSSRKEQLVFLINNYDMMLGVLMERAADDSKEVESFQQLLNARTQEFIEELLSPPFGGLVAFVKEAEALIERGQAERLRGEEARVTQLIRGFGSSWKSSVESLSQDVMRSFTNFRNGTSIIQGALTQLIQLYHRFHRVLSQPQLRALPARAELINIHHLMVELKKHKPNF
# B6: DSN1 (protein, UniProt Q9H410 1-356)
# chain: MTSVTRSEIIDEKGPVMSKTHDHQLESSLSPVEVFAKTSASLEMNQGVSEERIHLGSSPKKGGNCDLSHQERLQSKSLHLSPQEQSASYQDRRQSWRRASMKETNRRKSLHPIHQGITELSRSISVDLAESKRLGCLLLSSFQFSIQKLEPFLRDTKGFSLESFRAKASSLSEELKHFADGLETDGTLQKCFEDSNGKASDFSLEASVAEMKEYITKFSLERQTWDQLLLHYQQEAKEILSRGSTEAKITEVKVEPMTYLGSSQNEVLNTKPDYQKILQNQSKVFDCMELVMDELQGSVKQLQAFMDESTQCFQKVSVQLGKRSMQQLDPSPARKLLKLQLQNPPAIHGSGSGSCQ
# B7: Rab34 (protein, UniProt Q9BZG1 1-259)
# chain: MNILAPVRRDRVLAELPQCLRKEAALHGHKDFHPRVTCACQEHRTGTVGFKISKVIVVGDLSVGKTCLINRFCKDTFDKNYKATIGVDFEMERFEVLGIPFSLQLWDTAGQERFKCIASTYYRGAQAIIIVFNLNDVASLEHTKQWLADALKENDPSSVLLFLVGSKKDLSTPAQYALMEKDALQVAQEMKAEYWAVSSLTGENVREFFFRVAALTFEANVLAELEKSGARRIGDVVRINSDDSNLYLTASKKKPTCCP
# Target: 3xFLAG-turboID-LRRK2 (Leucine-rich repeat kinase 2) (UniProt Q5S007)
# Test: proximity labelling
row,binding,Molecule
1,binds,Rab8A (from UniProt P61006 1-207)
2,binds,B1
3,binds,B2
4,binds,B3
5,binds,B4
6,binds,B5
7,binds,B6

# Target: TurboID-LRRK1 fusion construct (Leucine-rich repeat kinase 1) (UniProt Q38SD2)
# Test: proximity labelling
row,binding,Molecule
1,binds,TUBA1B (from UniProt P68363 1-451)
2,binds,Grb2 (from UniProt P62993 1-217)
3,binds,Epidermal Growth Factor Receptor (from UniProt P00533 25-1210)
4,binds,Rab8A (from UniProt P61006 1-207)
5,binds,sorting nexin SNX1 (from UniProt Q13596 1-522)
6,binds,B7
7,binds,B2
8,binds,B5
